No constants are given. Whether binding was seen depends on the method and setting. Binding seen in cells or lysates may run through a third protein. Some results given as binding are weak or reduced against the parent protein; the word gives no strength.
Columns and labels:
[1] = target: full length ELMO1 with V5 tag (PcDNA ELMO1-V5) (mouse) (UniProt Q8BPU7); assay: summary of the co-immunoprecipitation experiments
[2] = target: full length ELMO1 with V5 tag (PcDNA ELMO1-V5) (mouse) (UniProt Q8BPU7); assay: co-immunoprecipitation and Western blot, 293T cells (figure legend)
[3] = target: full length ELMO1 with V5 tag (PcDNA ELMO1-V5) (mouse) (UniProt Q8BPU7); assay: co-immunoprecipitation from 293T cells: anti-HA IP, anti-V5 Western blot
[4] = target: Tiam1 with HA tag at its C terminus (PCI Tiam1-HA) (mouse) (UniProt Q60610); assay: as above
[5] = target: full length DOCK2 with HA tag at the C terminus (PcDNA DOCK2-HA) (mouse) (UniProt Q8C3J5); assay: as above
[6] = target: Tiam1 with HA tag at its C terminus (PCI Tiam1-HA) (mouse) (UniProt Q60610); assay: summary of the co-immunoprecipitation experiments
[7] = target: Tiam1 with HA tag at its C terminus (PCI Tiam1-HA) (mouse) (UniProt Q60610); assay: co-immunoprecipitation and Western blot, 293T cells (figure legend)
[8] = target: full length DOCK2 with HA tag at the C terminus (PcDNA DOCK2-HA) (mouse) (UniProt Q8C3J5); assay: as above

By UniProt entry, the sequences of proteins in these tests, tags left out. Where a name states a change or a piece, a line headed by the entry shows the natural chain unless it says otherwise.
UniProt Q60610: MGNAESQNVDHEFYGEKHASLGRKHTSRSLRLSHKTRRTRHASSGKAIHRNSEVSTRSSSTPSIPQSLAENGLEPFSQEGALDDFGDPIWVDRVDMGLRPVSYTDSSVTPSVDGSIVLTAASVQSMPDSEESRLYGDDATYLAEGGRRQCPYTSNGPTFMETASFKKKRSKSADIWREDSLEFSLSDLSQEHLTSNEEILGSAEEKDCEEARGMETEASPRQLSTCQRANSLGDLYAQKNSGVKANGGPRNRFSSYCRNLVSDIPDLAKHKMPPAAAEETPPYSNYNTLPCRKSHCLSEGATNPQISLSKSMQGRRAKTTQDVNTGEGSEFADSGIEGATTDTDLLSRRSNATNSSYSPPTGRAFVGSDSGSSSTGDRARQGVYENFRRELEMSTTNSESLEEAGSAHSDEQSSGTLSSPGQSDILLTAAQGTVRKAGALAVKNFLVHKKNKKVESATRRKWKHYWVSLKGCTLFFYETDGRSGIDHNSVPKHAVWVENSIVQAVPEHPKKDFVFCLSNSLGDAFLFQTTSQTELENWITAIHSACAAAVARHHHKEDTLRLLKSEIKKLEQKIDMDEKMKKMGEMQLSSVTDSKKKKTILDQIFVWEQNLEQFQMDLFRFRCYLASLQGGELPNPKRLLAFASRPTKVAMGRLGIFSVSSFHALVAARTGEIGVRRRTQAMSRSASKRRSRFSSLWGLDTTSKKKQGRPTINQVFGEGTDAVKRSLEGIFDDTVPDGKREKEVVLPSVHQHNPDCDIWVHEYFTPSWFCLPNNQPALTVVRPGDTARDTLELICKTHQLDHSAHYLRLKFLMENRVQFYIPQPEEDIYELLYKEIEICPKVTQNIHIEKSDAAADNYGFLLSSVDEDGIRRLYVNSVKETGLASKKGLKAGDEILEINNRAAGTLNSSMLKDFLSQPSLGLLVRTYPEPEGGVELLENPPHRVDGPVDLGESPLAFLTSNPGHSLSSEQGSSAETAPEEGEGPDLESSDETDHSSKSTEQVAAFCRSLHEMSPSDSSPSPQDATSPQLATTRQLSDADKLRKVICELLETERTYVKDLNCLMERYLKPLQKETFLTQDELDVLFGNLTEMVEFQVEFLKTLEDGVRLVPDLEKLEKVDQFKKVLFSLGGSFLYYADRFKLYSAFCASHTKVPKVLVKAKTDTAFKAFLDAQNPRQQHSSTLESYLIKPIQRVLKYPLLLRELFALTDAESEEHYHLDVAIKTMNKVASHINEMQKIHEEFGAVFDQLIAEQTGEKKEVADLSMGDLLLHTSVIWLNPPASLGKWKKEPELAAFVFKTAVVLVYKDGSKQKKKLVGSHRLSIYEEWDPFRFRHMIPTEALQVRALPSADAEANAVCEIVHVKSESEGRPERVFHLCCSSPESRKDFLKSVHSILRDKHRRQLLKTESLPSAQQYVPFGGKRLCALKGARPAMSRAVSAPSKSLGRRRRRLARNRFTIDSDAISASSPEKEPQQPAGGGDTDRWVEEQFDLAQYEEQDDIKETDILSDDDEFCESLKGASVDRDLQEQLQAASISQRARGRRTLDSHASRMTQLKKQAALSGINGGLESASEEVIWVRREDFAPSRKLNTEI
UniProt Q8C3J5: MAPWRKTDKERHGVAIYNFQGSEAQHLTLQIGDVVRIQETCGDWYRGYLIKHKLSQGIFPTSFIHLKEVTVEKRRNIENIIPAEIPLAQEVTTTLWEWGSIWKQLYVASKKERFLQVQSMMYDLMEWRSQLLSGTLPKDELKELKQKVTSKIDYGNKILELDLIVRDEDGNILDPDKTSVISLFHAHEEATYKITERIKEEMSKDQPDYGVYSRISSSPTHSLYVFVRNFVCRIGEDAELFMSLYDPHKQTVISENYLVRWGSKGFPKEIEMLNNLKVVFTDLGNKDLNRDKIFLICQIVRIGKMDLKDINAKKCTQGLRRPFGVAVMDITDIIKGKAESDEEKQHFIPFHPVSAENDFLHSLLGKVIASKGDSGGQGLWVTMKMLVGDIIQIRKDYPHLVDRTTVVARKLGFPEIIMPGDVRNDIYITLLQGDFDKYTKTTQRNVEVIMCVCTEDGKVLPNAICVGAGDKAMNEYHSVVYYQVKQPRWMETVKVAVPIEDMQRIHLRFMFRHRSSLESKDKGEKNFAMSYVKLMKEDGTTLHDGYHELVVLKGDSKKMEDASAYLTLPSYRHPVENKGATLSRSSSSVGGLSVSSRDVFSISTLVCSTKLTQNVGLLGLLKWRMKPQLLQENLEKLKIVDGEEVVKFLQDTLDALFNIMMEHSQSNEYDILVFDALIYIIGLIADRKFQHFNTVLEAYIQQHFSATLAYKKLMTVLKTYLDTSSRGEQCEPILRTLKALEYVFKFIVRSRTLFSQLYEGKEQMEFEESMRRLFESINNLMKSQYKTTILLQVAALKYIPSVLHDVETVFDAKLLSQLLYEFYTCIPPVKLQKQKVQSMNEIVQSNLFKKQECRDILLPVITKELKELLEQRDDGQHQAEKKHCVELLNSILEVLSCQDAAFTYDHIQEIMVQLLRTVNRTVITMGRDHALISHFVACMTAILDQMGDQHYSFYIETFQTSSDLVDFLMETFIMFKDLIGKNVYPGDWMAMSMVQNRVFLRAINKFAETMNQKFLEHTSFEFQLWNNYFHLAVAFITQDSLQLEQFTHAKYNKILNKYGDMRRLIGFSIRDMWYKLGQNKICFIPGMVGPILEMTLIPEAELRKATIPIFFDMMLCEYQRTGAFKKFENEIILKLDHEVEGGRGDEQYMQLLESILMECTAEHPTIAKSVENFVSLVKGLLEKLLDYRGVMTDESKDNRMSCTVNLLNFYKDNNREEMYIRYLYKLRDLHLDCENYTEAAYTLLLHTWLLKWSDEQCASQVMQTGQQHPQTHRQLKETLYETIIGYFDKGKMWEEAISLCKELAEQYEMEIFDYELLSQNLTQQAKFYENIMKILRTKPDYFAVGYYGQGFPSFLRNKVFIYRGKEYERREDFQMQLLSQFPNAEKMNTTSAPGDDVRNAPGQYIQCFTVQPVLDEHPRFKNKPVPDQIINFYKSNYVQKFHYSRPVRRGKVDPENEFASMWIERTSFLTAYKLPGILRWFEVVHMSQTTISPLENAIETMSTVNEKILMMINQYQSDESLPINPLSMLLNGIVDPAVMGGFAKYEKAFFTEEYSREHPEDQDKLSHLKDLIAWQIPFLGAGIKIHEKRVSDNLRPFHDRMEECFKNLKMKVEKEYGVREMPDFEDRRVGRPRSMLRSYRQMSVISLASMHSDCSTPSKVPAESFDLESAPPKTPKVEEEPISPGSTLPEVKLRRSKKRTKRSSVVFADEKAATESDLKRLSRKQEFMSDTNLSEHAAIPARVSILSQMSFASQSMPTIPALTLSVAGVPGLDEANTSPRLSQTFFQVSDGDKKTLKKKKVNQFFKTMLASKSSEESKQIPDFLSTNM

Molecule | binding [3] | binding [5] | other results
ELMO1-delPH-V5 (amino acid residues 1-565 and 695-727 of ELMO1) (from UniProt Q8BPU7 1-727) | – | – | binding [4]: binds
ELMO1-del1-V5 (amino acid residues 147-727 of ELMO1) (other, Expressed in 293T cells; also called ELMO1-dell; PcDNA ELMO1-del1-V5; not shown: V5 (and His) tag from the PcDNA V5His vector) MKPCFGDMLSFTLTAFVELMDHGIVSWDTFSVAFIKKIASFVNKSAIDISILQRSLAILESMVLNSHDLYQKVAQEITIGQLIPHLQGTDQEIQTYTIAVINALFLKAPDERRQEMANILAQKQLRYIILTHVIRAQRAINNEMAHQLYVLQVLTFNLLEDRMMTKMDPQDQAQRDIIFELRRIAFDAESEPNNSSGSMEKRKSMYTRDYKKLGFINHVNPAMDFTQTPPGMLALDNMLYFAKHHQDAYIRIVLENSSREDKHECPFGRSSIELTKMLCEILKVGELPSETCNDFHPMFFTHDRSFEEFFCICIQLLNKTWKEMRATSEDFNKVMQVVKEQVMRALTTKPSSLDQFKSKLQNLSYTEILKIRQSERMNQEDFQSRPILELKEKIQPEILELIKQQRLNRLVEGTCFRKLNARRRQDKFWYCRLSPNHKVLHYGDLEESPQGEVPHDSLQDKLPVADIKAVVTGKDCPHMKEKGALKQNKEVLELAFSILYDSNCQLNFIAPDKHEYCIWTDGLNALLGKDMMSDLTRNDLDTLLSMEIKLRLLDLENIQIPDAPPPIPKEPSNYDFVYDCN | – | binds | –
full length ELMO1 with V5 tag (PcDNA ELMO1-V5) (other, Expressed in 293T cells; also called mouse ELMO1; not shown: V5 (and His) tag from the PcDNA V5-His vector) MPPPSDIVKVAIEWPGAYPKLMEIDQKKPLSAIIKEVCDGWSLANHEYFALQHADSSNFYITEKNRNEIKNGTILRLTTSPAQNAQQLHERIQSSSMDAKLEALKDLASLSRDVTFAQEFINLDGISLLTQMVESGTERYQKLQKIMKPCFGDMLSFTLTAFVELMDHGIVSWDTFSVAFIKKIASFVNKSAIDISILQRSLAILESMVLNSHDLYQKVAQEITIGQLIPHLQGTDQEIQTYTIAVINALFLKAPDERRQEMANILAQKQLRYIILTHVIRAQRAINNEMAHQLYVLQVLTFNLLEDRMMTKMDPQDQAQRDIIFELRRIAFDAESEPNNSSGSMEKRKSMYTRDYKKLGFINHVNPAMDFTQTPPGMLALDNMLYFAKHHQDAYIRIVLENSSREDKHECPFGRSSIELTKMLCEILKVGELPSETCNDFHPMFFTHDRSFEEFFCICIQLLNKTWKEMRATSEDFNKVMQVVKEQVMRALTTKPSSLDQFKSKLQNLSYTEILKIRQSERMNQEDFQSRPILELKEKIQPEILELIKQQRLNRLVEGTCFRKLNARRRQDKFWYCRLSPNHKVLHYGDLEESPQGEVPHDSLQDKLPVADIKAVVTGKDCPHMKEKGALKQNKEVLELAFSILYDSNCQLNFIAPDKHEYCIWTDGLNALLGKDMMSDLTRNDLDTLLSMEIKLRLLDLENIQIPDAPPPIPKEPSNYDFVYDCN | – | binds | binding [6]: binds; binding [7]: binds; binding [8]: binds; binding [4]: binds
ELMO1-del8-V5 (amino acid residues 345-727 of ELMO1) (other, Expressed in 293T cells; also called PcDNA ELMO1-del8-V5; not shown: V5 (and His) tag from the PcDNA V5His vector) MEKRKSMYTRDYKKLGFINHVNPAMDFTQTPPGMLALDNMLYFAKHHQDAYIRIVLENSSREDKHECPFGRSSIELTKMLCEILKVGELPSETCNDFHPMFFTHDRSFEEFFCICIQLLNKTWKEMRATSEDFNKVMQVVKEQVMRALTTKPSSLDQFKSKLQNLSYTEILKIRQSERMNQEDFQSRPILELKEKIQPEILELIKQQRLNRLVEGTCFRKLNARRRQDKFWYCRLSPNHKVLHYGDLEESPQGEVPHDSLQDKLPVADIKAVVTGKDCPHMKEKGALKQNKEVLELAFSILYDSNCQLNFIAPDKHEYCIWTDGLNALLGKDMMSDLTRNDLDTLLSMEIKLRLLDLENIQIPDAPPPIPKEPSNYDFVYDCN | – | binds | –

Now from value to molecule, other results behind:

binding [3] | Molecule | binding [5] | other results
binds | full length DOCK2 with HA tag at the C terminus (PcDNA DOCK2-HA) (from UniProt Q8C3J5 1-1828) | – | binding [1]: binds; binding [2]: binds
binds | DOCK2ΔC-HA (amino acid residue 1-1311 of DOCK2, HA tag at the C terminus) (from UniProt Q8C3J5 1-1311) | – | –
binds | DOCK2 SH3 mutant L27E-HA (from UniProt Q8C3J5 1-1828) | – | –
binds | DOCK2 N-HA (amino acid residue 1-502 of DOCK2, HA tag at the C terminus) (from UniProt Q8C3J5 1-502) | – | –

Reference: US20060234294A1 (JAPAN SCIENCE AND TECHNOLOGY AGENCY, published 2006)
